Measured values from the supplement of paper PMC4683952.
Where a name gives a salt, the structure may show the parent alone. Among all 1,200 compounds or so, about 50 (4%) showed activity. Rule as the data show it: all actives reach 1.3 or more but so do some inactives. The list shows a part of the results.

tested on: Lgr5 (MarsCy1-Lgr5-EGFP, U2OS); assay: cell-surface Lgr5 expression (SCi1 fluorescence, background-subtracted) relative to WT DMSO (fold of DMSO control); higher = more Lgr5 at the plasma membrane, active = hit call of the paper; conditions: U2OS MarsCy1-Lgr5-EGFP stable; treatment time: overnight; 16 µM; library: Johns Hopkins Clinical Compound Library

| SMILES | cell-surface Lgr5 expression |
| --- | --- |
| Cc1ccc(N(CC2=NCCN2)c2cccc(O)c2)cc1 [Phentolamine methane-sulfonate] | inactive: 0.929 |
| Cc1c(Cl)cccc1Nc1ccccc1C(=O)O [Tolfenamic acid] | inactive: 1.1 |
| CCCSc1ccc2[nH]c(NC(=O)OC)nc2c1 [Albendazole] | inactive: 0.987 |
| CO[C@H]1/C=C/O[C@@]2(C)Oc3c(C)c(O)c4c(O)c(c(/C=N/N5CCN(C)CC5)c(O)c4c3C2=O)NC(=O)/C(C)=C\C=C\[C@H](C)[C@H](O)[C@@H](C)[C@@H](O)[C@@H](C)[C@H](OC(C)=O)[C@@H]1C [Rifampicin (Rifampin)] | inactive: 1.06 |
| O=C[O-].[Na+] [Sodium formate] | inactive: 0.903 |
| CC(C(=O)O)c1ccc(CC2CCCC2=O)cc1 (configuration not stated) [Loxoprofen] | inactive: 0.974 |
| CC[C@H]1OC(=O)[C@H](C)[C@@H](O[C@H]2C[C@@](C)(OC)[C@@H](O)[C@H](C)O2)[C@H](C)[C@@H](O[C@@H]2O[C@H](C)C[C@H](N(C)C)[C@H]2O)[C@](C)(O)C[C@@H](C)C(=O)[C@H](C)[C@@H](O)[C@]1(C)O [Erythromycin stearate] | inactive: 0.91 |
| CC(=O)OCC(=O)[C@H]1CC[C@H]2[C@@H]3CC=C4C[C@@H](O)CC[C@]4(C)[C@H]3CC[C@]12C [21-Acetoxypregnenolone] | inactive: 1.06 |
| CC(C)[C@@H](C)/C=C/[C@@H](C)[C@H]1CC[C@H]2C3=CC=C4C[C@@H](O)CC[C@]4(C)[C@H]3CC[C@]12C [Ergosterol] | inactive: 1.02 |
| O=C1c2ccccc2C(=O)C1c1ccccc1 [Phenindione (2-Phenyl-1,3-indandione)] | inactive: 0.953 |
| O=C(Cn1ccnc1[N+](=O)[O-])NCc1ccccc1 [Benznidazole (N-Benzyl-2-nitro-1H-imidazole-1-acetamide)] | inactive: 0.909 |
| Clc1ccc2c(c1)C(N1CCNCC1)=Nc1ccccc1O2 [Amoxapine] | inactive: 0.373 |
| O=C(O)CCc1nc(-c2ccccc2)c(-c2ccccc2)o1 [Oxaprozin] | inactive: 0.961 |
| N.O.O.O.O.O.O.O.O.O.O.O.O.O=S(=O)([O-])O.O=S(=O)([O-])[O-].[Al+3] [Aluminum ammonium sulfate dodecahydrate] | inactive: 0.56 |
| OC[C@@H](O)[C@@H](O)[C@H](O)[C@H](O)CO [D-Mannitol] | inactive: 0.893 |
| C=CCc1ccc(O)c(OC)c1 [Eugenol] | inactive: 0.969 |
| CC(=O)OCC(=O)NCCCOc1cccc(CN2CCCCC2)c1 [Roxatidine acetate HCl] | inactive: 1.13 |

An excerpt from above in order of heavy-atom count, rising:

| SMILES | cell-surface Lgr5 expression |
| --- | --- |
| C=CCc1ccc(O)c(OC)c1 [Eugenol] | inactive: 0.969 |
| O=C(O)CCc1nc(-c2ccccc2)c(-c2ccccc2)o1 [Oxaprozin] | inactive: 0.961 |
| CC[C@H]1OC(=O)[C@H](C)[C@@H](O[C@H]2C[C@@](C)(OC)[C@@H](O)[C@H](C)O2)[C@H](C)[C@@H](O[C@@H]2O[C@H](C)C[C@H](N(C)C)[C@H]2O)[C@](C)(O)C[C@@H](C)C(=O)[C@H](C)[C@@H](O)[C@]1(C)O [Erythromycin stearate] | inactive: 0.91 |
